# Results reported in the supplement of paper PMC10338343.
# ± gives the standard deviation. The entries are a selection whose mix differs from that of the whole data set. Many entries were measured with a wide error.
# System: MIWI (PIWIL1) piRISC loaded with piRNA #2 (30 nt)
# Assay: pre-steady-state target cleavage rate (min^-1); MIWI and MILI are mouse PIWI proteins and EfPiwi is from a freshwater sponge; tags in brackets are library labels; higher = faster piRNA-guided slicing of the target
# Conditions: guide: piRNA #2 5'p-UUAGGUAACCCAGUAGAUCCAGAGGAAUUC; auxiliary factor: 500 nM mouse GTSF1
# Protocol: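 Cleave-'n-Seq: a library of target RNAs (target site embedded in constant flanks, ACAGCATTCCGCGTTAGTGATATCCG... 5' flank; DNA-blocked outside the site) at 0.1 nM was incubated with 1 nM active mouse MILI or MIWI piRISC (synthetic 5'-monophosphorylated piRNA guide) with or without 500 nM mouse GTSF1 at 33 °C for 1 min to 16 h. Uncleaved targets were sequenced and normalised to non-target controls, and the pooled three trials were fitted to a burst-and-steady-state model to give the pre-steady-state cleavage rate (min^-1; k3 is constrained to at most 1e-4). Sequence is the target site only; target names encode pairing extent (gX:gY) and contiguous / 1-mismatch / 2-mismatch / bulge geometry. Fits with R² ≤ 0 are excluded.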
row,Sequence,pre-steady-state target cleavage rate
1,CUUAACCUCUGGAUCUACGUGGGUUACCUAA,0.000871 ± 0.0095
2,CUUAAGGACUGGAUCUACUCGGUUAGCUAA,0.00432 ± 0.012
3,CUUAAGGAGACGAUCUACUGCGUUACGUAA,0.00199 ± 0.0033
4,CUUAAGGAGAGGAUCUACUCCGUUACCUAA,0.000186 ± 0.056
5,CUUAAGGAGAGGAACUACUGGGUUACCUUA,0.00068 ± 0.0095
6,CUUAAGGAGACCUACUACUCCCUUACCUAA,0.00023 ± 0.019
7,CUUAAGGUCUGGAUCUCACUGGGUUACCUAA,0.000112 ± 0.044
8,CUUAAGGAGACCAUCUACUGGGUUACCUAC [g2:g18:cont:t1C],0.00157 ± 0.0042
9,CUUAUCCUCUGGAUCUACUGGAGUUACCUAA,0.00314 ± 0.0048
10,CUUAAGGAGAGGAUCUACUCGGUUACGUAA,0.000751 ± 0.021
11,CUUAAGGAGACCUAGUACCUGGGUUACCUAA,0.00121 ± 0.0076
12,CUUAACCUGUGGAACUACUGGGUUACCUAA,0.177 ± 0.048
13,CUUAACCUCUGGAUCUACUGAGGUUACCUAA,0.00156 ± 0.0084
14,CUUAACCUCUGGAACUACUGGGUUAGCUAA,0.103 ± 0.016
15,CUUAAGGAGUGGAUUACUGGGUUACCUAA,0.00205 ± 0.007
16,CUUAAGGACUCGAUCUAGUGGGUUACCUAA,0.00313 ± 0.0036
17,CAAUUCCUCUGGAACUACUGGGUUACGUAA,0.517 ± 0.048
18,CUUAAGGAGACCAUCAUCUGGGUUACCUAA,0.00134 ± 0.0047
19,CAAUUCCUCUCGAUCUACAGGGUUACCUAA,0.546 ± 0.038
20,CUUAAGGAGACCAUCUACUGGGUUACCAAA,0.00207 ± 0.0035
21,CUUAAGGUCUGGAACUAGUGGGUUACCUAA,0.0577 ± 0.017
22,CUUAAGGAGACCAUCUACUAGGUUACCUAA,0.00234 ± 0.0046
23,CUUAAGGACUGGAUCUACUGGGUUAGGAUA [g6:g22:cont:t1A],0.000503 ± 0.029
24,CUUAAGGAGACGAUCUACUGGGUUAGCUAA,0.000305 ± 0.013

row,Sequence,pre-steady-state target cleavage rate
1,CUUAACCUCUGGAUCUACUUGGGUUACCUAA,0.000903 ± 0.0073
2,CUUAAGGAGACGAUCUUGAGGGUUACCUAA,0.00115 ± 0.0092
3,CUUAAGGACUGCAUCUACUGGCUUACCUAA,0.00289 ± 0.014
4,CUUAAGGAGACCAUCUACAGGGUUACCUAA,0.00269 ± 0.0043
5,CUUAAGGAGACCUACUACUGGGUUGACCUAA,0.00326 ± 0.0034
6,CUUAAGGAGACCUAGAUCUGGGUAUGCUAA,0.000168 ± 0.032
7,CUUAAGGAGACGAUCAACUGGGUUACCUAA,0.000784 ± 0.011
8,CUUAAGGAGACCUAGAUCUGGGUUAUCCUAA,0.00132 ± 0.0069
9,CUUAAGGAGACCUACUCCUGGGUUACCUAA,0.00206 ± 0.0039
10,CUUAAGGACUCGAUCUACUGGGUAACCUAA,0.00173 ± 0.02
11,CUUAAGCUCUGGAUCUACUGGGUAUGGAUA [g8:g24:cont:t1A],0.0011 ± 0.011
12,CUUAAGGAGACCUACUACUGGGUUACGAAA,0.00097 ± 0.0074
13,CUUAAGGAGACGAUCAUACUGGGUUACCUAA,0.000571 ± 0.016
14,CUAUUCCUCUGGAUCUACUUGGUUACCUAA,0.00335 ± 0.0054
15,CAAUUCCUCUGGUUCUACUGGGUUACCUAA,0.868 ± 0.05
16,CUUAAGCUCUGGAUCUAGACGGUUACCUAA,0.000313 ± 0.02
17,CUUAAGGAGACCUACUACUGGCUAACCUAA,0.000762 ± 0.0076
18,CUUAAGGAGACCUACUACUGGGGUACCUAA,0.000698 ± 0.0094
19,CUUAAGGAGUAGAUCUACUGGGUUACCUAA,0.00567 ± 0.0048
20,CUUAAGGAGAGGAUCUACACGGUUACCUAA,0.000532 ± 0.0093
21,GAAUUCCUCUGGAUCUACUGGUGUUACCUAA,0.0068 ± 0.0031
22,CUUUUUCCUCUGGAUCUACUGGGUUACCUAA,0.308 ± 0.046
23,CUAUACCUCUGGAUCUACUGGGUUACGUAA,0.674 ± 0.032
24,CAAUUCCUCUGGAUCUACUGGCUUAGCUAA,0.00113 ± 0.013

# Part of the list above, tab-delimited:
row	Sequence	pre-steady-state target cleavage rate
10	CUUAAGGACUCGAUCUACUGGGUAACCUAA	0.00173 ± 0.02
15	CAAUUCCUCUGGUUCUACUGGGUUACCUAA	0.868 ± 0.05
24	CAAUUCCUCUGGAUCUACUGGCUUAGCUAA	0.00113 ± 0.013

# Remaining list, next part.

row,Sequence,pre-steady-state target cleavage rate
1,CUUAAGGAGAGGAUCUACUGGGUGUACCUAA,0.0042 ± 0.0067
2,CUUAAGGUCUGGAUGUACUGGCUUACCUAA,0.0442 ± 0.028
3,CUUAAGGAGACCAUCUACUGGGUUUACCUAA,0.00174 ± 0.0057
4,CUUAAGGAGACCAUCUACAGGCUUACCUAA,0.00254 ± 0.0033
5,CUUAAGGAGACGAUGUACUGGGUUUCCUAA,0.000696 ± 0.0074
6,CUUAAGGAGUGGAUCUACUGCGAUACCUAA,0.00391 ± 0.004
7,CUUAACCUCUCGAUCUACUGCGUUACCUAA,0.614 ± 0.057
8,CUAUUCCUCUCGAUCUACUGGGUUACGUAA,0.935 ± 0.047
9,CUAUUCCUCUGGAUCUACUGGGUUACCAUAA,0.553 ± 0.069
10,CUUUUCCUCUGGAUCUACUGGGUUACCUAA [g2:g27:cont:t1A],0.408 ± 0.057
11,CUUAAGGAGACCUUCUCCUGGGUUACCUAA,0.00234 ± 0.0064
12,CUUAAGGAGAGCAUCUAGUGGGUUACCUAA,0.00149 ± 0.0063
13,CUUAAGGAGACGAUCUACUGGCUUACCUUA,0.000844 ± 0.0086
14,CUUAAGGAGACCUAGUACCGGGUUACCUAA,0.000326 ± 0.026
15,CUUAAGGACUGGAUCAUCUGGGUUACCUAA,0.0065 ± 0.011
16,CUUAACCUCUGGAUCUACCUGGGUUACCUAA,0.00134 ± 0.0079
17,CUUAAGGAGACCACUCUACUGGGUUACCUAA,0.00288 ± 0.0061
18,CUUAAGGAGACCUACUACUGGGUGACCUAA,0.00085 ± 0.0096
19,CUUAAGGAGACCUACUACUGGGUAACCAAA,0.000293 ± 0.013
20,CAAUUCCUUGGAUCUACUGGGUUACCUAA,0.45 ± 0.061
21,CUUAAGGAGACGAUCCUACUGGGUUACCUAA,0.00122 ± 0.0043
22,CUUAUCCUCUGGAUCUACUCCCUUACCUAA,0.00136 ± 0.0093
